PubChem BioAssay AID1224826 – NIAID, 2016
In all, the deposit lists about 17,000 reagents; shown is a part drawn at random. Of all reagents, about 1,110 (6.6%) were called active. 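Active means lowered or raised reporter signal; replicate intensities are raw and not normalised per plate.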 No sequences are given here.

Purpose: 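Knock-downs that raise or lower Tnf reporter signal after endotoxin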 (primary screen)
Cell system: RAW264.7 G9 macrophages from mouse bearing reporters for p65 (GFP) and the Tnf promoter (mCherry)
Reagents: siRNA pool against mouse genes, 100 nM
Time to read-out: 16 h of LPS stimulation, after 2 days of siRNA transfection
Challenge: bacterial lipopolysaccharide (Salmonella minnesota R595), 10 ng/ml
Measured: 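Imaged Tnf reporter mCherry in nuclei, minus background, normalised per plate to the median and expressed as robust z-scores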
Scale: Tnf reporter robust z-score: higher = stronger Tnf promoter reporter signal after LPS; Tnf reporter intensity: higher = stronger Tnf promoter reporter signal
Rule for the call: 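a well counts as active at a score of -1.3 or below (Tlr4 knock-down control median) or above 3 (raised signal); controls and wells holding fewer than 50 cells are excluded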
Meaning of the calls: active = Tnf reporter clearly lowered or raised; inactive = no clear change in Tnf reporter

The opening 2 records as a preview:
target gene | Tnf reporter robust z-score | fewer than 50 cells in well | Tnf reporter intensity, replicate 1 | Tnf reporter intensity, replicate 2 | Call
Msh2 (GeneID 17685) | 0.95 | enough cells in well | 375 | 249 | inactive
Mid1 (GeneID 17318) | 0.58 | enough cells in well | 334 | 230 | inactive

The list itself, from the first entry:
target gene | Tnf reporter robust z-score | fewer than 50 cells in well | Tnf reporter intensity, replicate 1 | Tnf reporter intensity, replicate 2 | Call
Msh2 (GeneID 17685) | 0.95 | enough cells in well | 375 | 249 | inactive
Mid1 (GeneID 17318) | 0.58 | enough cells in well | 334 | 230 | inactive
Gin1 (GeneID 252876) | 0.69 | enough cells in well | 264 | 79.1 | inactive
Slc39a1 (GeneID 30791) | – | fewer than 50 cells per well; well left out of calls | 51.5 | 25.9 | inactive
Acad9 (GeneID 229211) | 0.82 | enough cells in well | 353 | 153 | inactive
Rabep2 (GeneID 70314) | -0.83 | enough cells in well | 86.5 | 100 | inactive
Zw10 (GeneID 26951) | 0.7 | enough cells in well | 346 | 262 | inactive
Slc35d2 (GeneID 70484) | -1.11 | enough cells in well | 103 | 90.9 | inactive
Or9a7 (GeneID 258380) | 3.42 | enough cells in well | 210 | 256 | active
Map3k5 (GeneID 26408) | -0.25 | enough cells in well | 191 | 137 | inactive
Aif1l (GeneID 108897) | -0.74 | enough cells in well | 197 | 49.5 | inactive
Ffar3 (GeneID 233080) | -1.07 | enough cells in well | 148 | 170 | inactive
Bsnd (GeneID 140475) | -0.77 | enough cells in well | 97.1 | 134 | inactive
Mapk14 (GeneID 26416) | – | fewer than 50 cells per well; well left out of calls | 131 | 97.8 | inactive
Nme6 (GeneID 54369) | -0.23 | enough cells in well | 213 | 119 | inactive
Slc35a4 (GeneID 67843) | – | fewer than 50 cells per well; well left out of calls | 23.7 | 40.5 | inactive
Pde7b (GeneID 29863) | 0.73 | enough cells in well | 278 | 245 | inactive
Mkx (GeneID 210719) | – | fewer than 50 cells per well; well left out of calls | 82.6 | 80.5 | inactive
Gabarapl1 (GeneID 57436) | -0.93 | enough cells in well | 169 | 169 | inactive
Trim65 (GeneID 338364) | – | fewer than 50 cells per well; well left out of calls | 203 | 111 | inactive
Raet1a (GeneID 19368) | -1.13 | enough cells in well | 50.2 | 74.9 | inactive
Pax3 (GeneID 18505) | 0.11 | enough cells in well | 268 | 174 | inactive
Kifap3 (GeneID 16579) | 0.11 | enough cells in well | 230 | 169 | inactive
Unc80 (GeneID 329178) | 2.57 | enough cells in well | 247 | 244 | inactive
Srpk1 (GeneID 20815) | – | fewer than 50 cells per well; well left out of calls | 93 | 149 | inactive
Cpeb3 (GeneID 208922) | 1.08 | enough cells in well | 246 | 247 | inactive
Nipsnap1 (GeneID 18082) | 2.71 | enough cells in well | 394 | 260 | inactive
Lyve1 (GeneID 114332) | 2.56 | enough cells in well | 242 | 220 | inactive
Fut2 (GeneID 14344) | 0.26 | enough cells in well | 304 | 234 | inactive
Hsph1 (GeneID 15505) | -0.37 | enough cells in well | 231 | 144 | inactive
Hnf4aos (GeneID 68314) | 2.44 | enough cells in well | 390 | 165 | inactive
Pla1a (GeneID 85031) | 2.48 | enough cells in well | 224 | 252 | inactive
Fign (GeneID 60344) | 0.3 | enough cells in well | 329 | 112 | inactive
Avpr2 (GeneID 12000) | 0.9 | enough cells in well | 242 | 453 | inactive
Cdc73 (GeneID 214498) | -0.79 | enough cells in well | 109 | 115 | inactive
Agbl1 (GeneID 244071) | 1.92 | enough cells in well | 331 | 248 | inactive
Map3k8 (GeneID 26410) | 1.47 | enough cells in well | 187 | 250 | inactive
Tuba1b (GeneID 22143) | -0.23 | enough cells in well | 215 | 208 | inactive
4833432P19Rik (retired record) (GeneID 320582) | 0.5 | enough cells in well | 199 | 80.3 | inactive
Usp12 (GeneID 22217) | -0.37 | enough cells in well | 224 | 174 | inactive
